For two molecules, Quality of taste results are on record in US20030236399A1, “Method of improving the quality of taste of natural sweetner” (Shangdong Hua Xian Stevia Co., Ltd., priority 2002, published 2003).

A short description of this data set: Comparison of quality of taste of the natural sweetener before and after the process, at sucrose-equivalent sweetness. From the text:
Comparisons have been made between the natural sweetener before and after the process of the present invention and the results are illustrated as follow: […]

The mark [1] stands for this setting: Sweetness equivalent to 5% sucrose solution.
[2] abbreviates: Sweetness equivalent to 10% sucrose solution.
Where [3] appears, read: Sweetness equivalent to 15% sucrose solution.

Consider `C=C1C[C@@]23CC[C@H]4[C@@](C)(CCC[C@@]4(C)C(=O)O[C@@H]4O[C@H](CO)[C@@H](O)[C@H](O)[C@H]4O)[C@@H]2CC[C@]1(O[C@@H]1O[C@H](CO)[C@@H](O)[C@H](O)[C@H]1O[C@@H]1O[C@H](CO)[C@@H](O)[C@H](O)[C@H]1O)C3` [stevioside], for which the Quality of taste entry under setting [1] is “Sweet, Bitter, no unpleasant”; the Quality of taste result under setting [2] is “Sweet, higher level of”; the Quality of taste entry under setting [3] is “Sweet, irritative, very high”.
On to α-glycosyl stevioside, for which the Quality of taste result was “Improve sweetness, pleasant,” under setting [1]; “Improve sweetness, pleasant,” under setting [2]; “High quality of sweetness,” under setting [3].
